Data: article PMC5741621
These are yes or no findings as the source states them, for the method shown. Binding seen in cells or lysates may run through a third protein. Some entries that bind do so weakly or less than the wild type. For some assays here: Where a sequence is shown, tags or fusion partners need not be part of it.

Chains of the proteins cited; added tags and fusions are not shown.
UniProt Q9FIJ0: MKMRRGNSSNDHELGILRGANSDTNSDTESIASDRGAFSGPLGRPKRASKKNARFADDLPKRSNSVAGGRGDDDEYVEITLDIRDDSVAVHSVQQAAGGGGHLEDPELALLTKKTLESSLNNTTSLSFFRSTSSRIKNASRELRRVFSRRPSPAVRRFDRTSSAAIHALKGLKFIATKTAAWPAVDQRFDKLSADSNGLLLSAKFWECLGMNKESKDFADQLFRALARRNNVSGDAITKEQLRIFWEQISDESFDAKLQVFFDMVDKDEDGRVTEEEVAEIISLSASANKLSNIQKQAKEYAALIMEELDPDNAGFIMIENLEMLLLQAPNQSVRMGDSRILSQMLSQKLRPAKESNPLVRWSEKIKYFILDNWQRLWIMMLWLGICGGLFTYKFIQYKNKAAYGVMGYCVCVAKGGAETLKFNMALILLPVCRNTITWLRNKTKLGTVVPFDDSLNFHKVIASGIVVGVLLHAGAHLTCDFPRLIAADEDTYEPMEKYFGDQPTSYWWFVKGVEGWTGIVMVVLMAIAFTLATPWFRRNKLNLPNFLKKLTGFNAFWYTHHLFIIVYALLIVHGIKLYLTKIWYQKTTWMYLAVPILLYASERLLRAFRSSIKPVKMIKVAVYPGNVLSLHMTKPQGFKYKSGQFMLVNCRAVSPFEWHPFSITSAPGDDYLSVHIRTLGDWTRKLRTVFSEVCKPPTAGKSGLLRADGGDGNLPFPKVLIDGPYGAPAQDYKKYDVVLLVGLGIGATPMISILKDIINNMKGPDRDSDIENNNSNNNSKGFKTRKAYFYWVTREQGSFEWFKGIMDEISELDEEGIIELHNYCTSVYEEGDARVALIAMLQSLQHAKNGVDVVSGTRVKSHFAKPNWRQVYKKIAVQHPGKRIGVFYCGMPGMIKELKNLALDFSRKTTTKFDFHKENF

Experiments:
[1] = molecular target: DORN1-HA (HA-tagged DORN1, LecRK-I.9) (Arabidopsis) (UniProt Q9LSR8); assay: co-IP; HA- and Myc-tagged proteins co-expressed in wild-type Arabidopsis protoplasts, treated with 200 μM ATP for 20 min or H2O; extract in 50 mM Tris pH 7.5, 150 mM NaCl, 0.5% Triton-X 100; anti-Myc and protein A resin, blot with anti-HA-HRP
[2] = molecular target: RBOHD-Myc (Myc-tagged RBOHD) (Arabidopsis) (UniProt Q9FIJ0); assay: as above
RBOHD-YFPc (Arabidopsis) = RBOHD-YFPc (Arabidopsis) (UniProt Q9FIJ0); assay: split reporter; BiFC: YFPn and YFPc fusions co-transformed into Arabidopsis protoplasts, overnight at 23 °C in the dark; YFP fluorescence by microscopy, FM4-64 as plasma membrane marker
[3] = molecular target: RBOHD-Myc from the CaMV 35S promoter (35s::RBOHD-Myc/Col-0) (Arabidopsis) (UniProt Q9FIJ0); assay: co-IP; total protein extract of stable transgenic Arabidopsis plants (F1) expressing DORN1-HA and RBOHD-Myc, treated with or without 250 μM ATP for 30 min
[4] = molecular target: RBOHD-Myc (Myc-tagged RBOHD) (Arabidopsis), Q9FIJ0; assay: co-IP; HA- and Myc-tagged proteins co-expressed in wild-type Arabidopsis protoplasts, treated with 200 μM ATP for 20 min or H2O; extract in 50 mM Tris pH 7.5, 150 mM NaCl, 0.5% Triton-X 100; anti-Myc and protein A resin, blot with anti-HA-HRP; conditions: remark: other sources report otherwise

B1: DORN1-HA (HA-tagged DORN1, LecRK-I.9) (receptor, UniProt Q9LSR8 22-766)
chain: QQETSFVYESFLDRQNLYLDKSAIVLPSGLLQLTNASEHQMGHAFHKKPIEFSSSGPLSFSTHFVCALVPKPGFEGGHGIVFVLSPSMDFTHAESTRYLGIFNASTNGSSSYHVLAVELDTIWNPDFKDIDHNHVGIDVNSPISVAIASASYYSDMKGSNESINLLSGNPIQVWVDYEGTLLNVSVAPLEVQKPTRPLLSHPINLTELFPNRSSLFAGFSAATGTAISDQYILWWSFSIDRGSLQRLDISKLPEVPHPRAPHKKVSTLIILLPVCLAILVLAVLAGLYFRRRRKYSEVSETWEKEFDAHRFSYRSLFKATKGFSKDEFLGKGGFGEVYRGNLPQGREIAVKRVSHNGDEGVKQFVAEVVSMRCLKHRNLVPLFGYCRRKRELLLVSEYMPNGSLDEHLFDDQKPVLSWSQRLVVVKGIASALWYLHTGADQVVLHRDVKASNIMLDAEFHGRLGDFGMARFHEHGGNAATTAAVGTVGYMAPELITMGASTGTDVYAFGVFMLEVTCGRRPVEPQLQVEKRHMIKWVCECWKKDSLLDATDPRLGGKFVAEEVEMVMKLGLLCSNIVPESRPTMEQVVLYLNKNLPLPDFSPYTLGIGTFAPVLVDASSLVVSSASWSLSGPSMSSSSPNHSPYAWQSTDQPWGQTIDTKNSLHIVAEPEKPSPAVKMVTLPAEDPQSNHSSISSQRVQPVKREKRRLHQILVAFPWINKQYFKLGLPKHIVHVSLFFFLQLARL
binding [1]: binds | binding [2]: binds

B2: DORN1-YFPn (receptor, UniProt Q9LSR8 22-766)
chain: B1 chain
binding (RBOHD-YFPc (Arabidopsis)): binds

B3: DORN1-HA from the DORN1 native promoter (NP::DORN1-HA/dorn1-3) (receptor, UniProt Q9LSR8 22-766)
chain: B1 chain
binding [3]: binds

B4: full-length chitin elicitor receptor kinase (CERK1), A8R7E6 24-617 (receptor)
chain: KCRTSCPLALASYYLENGTTLSVINQNLNSSIAPYDQINFDPILRYNSNIKDKDRIQMGSRVLVPFPCECQPGDFLGHNFSYSVRQEDTYERVAISNYANLTTMESLQARNPFPATNIPLSATLNVLVNCSCGDESVSKDFGLFVTYPLRPEDSLSSIARSSGVSADILQRYNPGVNFNSGNGIVYVPGRDPNGAFPPFKSSKQDGVGAGVIAGIVIGVIVALLLILFIVYYAYRKNKSKGDSFSSSIPLSTKADHASSTSLQSGGLGGAGVSPGIAAISVDKSVEFSLEELAKATDNFNLSFKIGQGGFGAVYYAELRGEKAAIKKMDMEASKQFLAELKVLTRVHHVNLVRLIGYCVEGSLFLVYEYVENGNLGQHLHGSGREPLPWTKRVQIALDSARGLEYIHEHTVPVYVHRDIKSANILIDQKFRAKVADFGLTKLTEVGGSATRGAMGTFGYMAPETVYGEVSAKVDVYAFGVVLYELISAKGAVVKMTEAVGEFRGLVGVFEESFKETDKEEALRKIIDPRLGDSYPFDSVYKMAELGKACTQENAQLRPSMRYIVVALSTLFSSTGNWDVGNFQNEDLVSLMSGR
binding [4]: no binding
